Results published in publication PMC3141008.

Amino acid sequences for entries named in this document (tags omitted).
UniProt Q9LQ02: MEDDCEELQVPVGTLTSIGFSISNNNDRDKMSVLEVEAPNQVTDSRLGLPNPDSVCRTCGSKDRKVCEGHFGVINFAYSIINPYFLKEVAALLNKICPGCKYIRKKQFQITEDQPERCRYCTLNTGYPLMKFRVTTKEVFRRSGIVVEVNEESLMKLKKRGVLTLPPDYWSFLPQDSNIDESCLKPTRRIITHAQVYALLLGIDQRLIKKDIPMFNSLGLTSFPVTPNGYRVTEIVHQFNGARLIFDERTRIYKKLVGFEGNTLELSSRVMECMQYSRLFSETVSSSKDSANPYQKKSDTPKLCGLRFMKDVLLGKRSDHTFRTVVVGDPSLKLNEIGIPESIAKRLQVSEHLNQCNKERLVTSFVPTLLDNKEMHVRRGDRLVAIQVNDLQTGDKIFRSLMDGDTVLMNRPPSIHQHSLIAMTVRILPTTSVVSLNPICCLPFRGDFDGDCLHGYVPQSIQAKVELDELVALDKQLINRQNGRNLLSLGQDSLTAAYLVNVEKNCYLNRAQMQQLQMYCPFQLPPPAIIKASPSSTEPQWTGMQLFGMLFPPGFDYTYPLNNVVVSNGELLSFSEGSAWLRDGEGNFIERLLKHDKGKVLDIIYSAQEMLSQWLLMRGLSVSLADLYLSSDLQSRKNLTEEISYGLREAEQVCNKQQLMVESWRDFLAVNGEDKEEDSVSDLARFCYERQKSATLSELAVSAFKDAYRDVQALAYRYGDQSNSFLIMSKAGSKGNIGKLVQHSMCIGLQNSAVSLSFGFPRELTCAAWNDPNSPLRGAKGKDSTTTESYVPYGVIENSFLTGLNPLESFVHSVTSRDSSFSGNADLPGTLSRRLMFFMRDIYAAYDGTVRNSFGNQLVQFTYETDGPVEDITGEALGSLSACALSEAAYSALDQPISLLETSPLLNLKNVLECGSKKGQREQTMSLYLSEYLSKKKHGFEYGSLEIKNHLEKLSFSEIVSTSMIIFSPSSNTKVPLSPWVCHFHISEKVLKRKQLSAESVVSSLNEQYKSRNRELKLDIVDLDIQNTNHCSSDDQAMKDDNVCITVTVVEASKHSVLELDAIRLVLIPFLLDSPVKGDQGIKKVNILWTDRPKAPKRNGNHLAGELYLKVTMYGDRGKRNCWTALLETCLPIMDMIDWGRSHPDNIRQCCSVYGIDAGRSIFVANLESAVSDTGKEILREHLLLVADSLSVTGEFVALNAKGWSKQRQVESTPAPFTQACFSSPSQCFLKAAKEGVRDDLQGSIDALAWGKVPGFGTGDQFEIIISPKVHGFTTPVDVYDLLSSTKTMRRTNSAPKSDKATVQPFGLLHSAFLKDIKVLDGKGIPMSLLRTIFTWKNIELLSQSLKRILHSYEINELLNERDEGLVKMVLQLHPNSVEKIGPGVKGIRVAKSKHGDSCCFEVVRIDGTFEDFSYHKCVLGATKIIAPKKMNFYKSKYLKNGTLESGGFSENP

Biological target: NUCLEAR RNA POLYMERASE D1 (NRPD1), carboxy-terminal 3×Flag tagged (Arabidopsis thaliana) (UniProt Q9LQ02)
Assay: affinity purification with mass spectrometry; ~10 g flower tissue of NRPD1-3×Flag and NRPD1-3×Flag-BLRP T4 plants (Col as negative control); lysis buffer 50 mM Tris pH7.6, 150 mM NaCl, 5 mM MgCl2, 10% glycerol, 0.1% NP-40; Dynabeads conjugated with a Flag antibody, 4°C 2.5 hours; eluted with 3×Flag peptide

Row | Binder | binding
1 | SAWADEE HOMEODOMAIN HOMOLOG 1 (SHH1), endogenous (protein, UniProt Q9XI47 1-258) MAASDDSSHYFTEFTLSEIVDMENLYKELGDQSLHKDFCQTVASTFSCSVNRNGKSSITWKQVQIWFQEKLKHQSQPKSKTLPSPPLQIHDLSNPSSYASNASNATFVGNSTFVQTRKGKASDLADLAFEAKSARDYAWYDVSSFLTYRVLRTGELEVRVRFSGFDNRHDEWVNVKTSVRERSIPVEPSECGRVNVGDLLLCFQEREDQALYCDGHVLNIKRGIHDHARCNCVFLVRYELDNTEESLGLERICRRPEE | binds
2 | NRPE3B (protein, UniProt Q39212 1-319) MDGVTYQRFPTVKIRELKDDYAKFELRETDVSMANALRRVMISEVPTMAIHLVKIEVNSSVLNDEFIAQRLSLIPLTSERAMSMRFCQDCEDCNGDEHCEFCSVEFPLSAKCVTDQTLDVTSRDLYSADPTVTPVDFTSNSSTSDSSEHKGIIIAKLRRGQELKLKALARKGIGKDHAKWSPAATVTYMYEPDIIINEEMMNTLTDEEKIDLIESSPTKVFGIDPVTGQVVVVDPEAYTYDEEVIKKAEAMGKPGLIEIHPKHDSFVFTVESTGALKASQLVLNAIDILKQKLDAIRLSDNTVEADDQFGELGAHMREG | binds
3 | NRPD4/E4 (protein, UniProt Q6DBA5 1-205) MSEKGGKGLKSSLKSKDGGKDGSSTKLKKGRKIHFDQRTPPANYKILNVSSDQQPFQSSAAKCGKSDKPTKSSKNSLHSFELKDLPENAECMMDCEAFQILDGIKGQLVGLSEDPSIKIPVSYDRALAYVESCVHYTNPQSVRKVLEPLKTYGISDGEMCVIANASSESVDEVLAFIPSLKTKKEVINQPLQDALEELSKLKKSE | binds
4 | NRPE5B (protein, UniProt Q9ZVB9 1-218) MEGKGKEIVVGHSISKSSVECHKYYLARRTTMEMLRDRGYDVSDEDINLSLQQFRALYGEHPDVDLLRISAKHRFDSSKKISVVFCGTGIVKVNAMRVIAADVLSRENITGLILVLQSHITNQALKAVELFSFKVELFEITDLLVNVSKHVLRPKHQVLNDKEKESLLKKFSIEEKQLPRLSSKDPIVRYYGLETGQVMKVTYKDELSESHVTYRCVS | binds
5 | NRPD7 (protein, UniProt Q8LE42 1-174) MFIKVKLPWDVTIPAEDMDTGLMLQRAIVIRLLEAFSKEKATKDLGYLITPTILENIGEGKIKEQTGEIQFPVVFNGICFKMFKGEIVHGVVHKVHKTGVFLKSGPYEIIYLSHMKMPGYEFIPGENPFFMNQYMSRIQIGARVRFVVLDTEWREAEKDFMALASIDGDNLGPF | binds
6 | NRPE7 (protein, UniProt A6QRA1 1-178) MFLKVQLPWNVMIPAENMDAKGLMLKRAILVELLEAFASKKATKELGYYVAVTTLDKIGEGKIREHTGEVLFPVMFSGMTFKIFKGEIIHGVVHKVLKHGVFMRCGPIENVYLSYTKMPDYKYIPGENPIFMNEKTSRIQVETTVRVVVIGIKWMEVEREFQALASLEGDYLGPLSEE | binds
7 | SAWADEE HOMEODOMAIN HOMOLOG 2 (SHH2) (protein, UniProt Q8RWJ7 1-348) MGRPPSNGGPAFRFILPEVTEMEAILLQHNTAMPGRHILEALADKFSESPERKGKVVVQFKQIWNWFQNRRYALRARGNKAPGKLNVSSMPRMDLPNQMRSVIQPLSVPKTTHMTGNLPGMTPAPSGSLVPGVMRSGSDNSYLEFEAKSARDGAWYDVQAFLAHRNLEIGDPEVQVRFAGFEVEEDEWINVKKHVRQRSLPCEASECVAVLAGDLVLCFQEGKDQALYFDAIVLDAQRRRHDVRGCRCRFLVRYSHDQSEEIVPLRKICRRPETDYRLQQLHNAVNDLANSNQHQIPALDAAAKTPLSLPGATVPIVAPESKDPSLSATPATLVQPSSNAATVPAGSA | no binding

Results are given in words; binding and its absence hold for the method and conditions named. In cells and extracts the contact can be indirect. Here binding means that the protein was enriched with, or labelled near, the bait; the list need not be complete. A no says only that the protein was not detected with the bait.
